Data reported in patent US12162954 (dated 2024).

Experiment: general procedure: Fmoc solid-phase peptide synthesis; Rink amide MBHA resin; DIC/Oxyma
Settings: whole synthesis, HPLC, scale of the general procedure 10.00 g resin, HCl salt (via TFA salt)

Q: For “Ac-D-Cys-D-Ala-D-Arg-D-Arg-D-Arg-D-Ala-D-Arg-NH2”, which “crude purity (method not given)” value is on record?
A: Its value is 76%.
